These are yes or no findings as the source states them, for the method shown. In cells and extracts the contact can be indirect. Some binding calls cover weakened binding; strength is not graded here. For part of these data: Where a sequence is shown, tags or fusion partners need not be part of it.
Assays:
Experiment in all cases: FRET or BRET; FlpInCHO cells transiently co-expressing C-myc-receptor-RLuc8 (donor) and YFP-β-arrestin2 (acceptor); stimulated with cognate chemokines at the indicated concentrations in HBSS with 5 μM coelenterazine-h; BRET read 10 min after stimulation
C-myc-CCR7-RLuc8 (human) = C-myc-CCR7-RLuc8 (human) (UniProt P32248)
[1] = molecular target: T1, C-myc-CCR10-RLuc8 (human) (UniProt P46092)
T1 sequence: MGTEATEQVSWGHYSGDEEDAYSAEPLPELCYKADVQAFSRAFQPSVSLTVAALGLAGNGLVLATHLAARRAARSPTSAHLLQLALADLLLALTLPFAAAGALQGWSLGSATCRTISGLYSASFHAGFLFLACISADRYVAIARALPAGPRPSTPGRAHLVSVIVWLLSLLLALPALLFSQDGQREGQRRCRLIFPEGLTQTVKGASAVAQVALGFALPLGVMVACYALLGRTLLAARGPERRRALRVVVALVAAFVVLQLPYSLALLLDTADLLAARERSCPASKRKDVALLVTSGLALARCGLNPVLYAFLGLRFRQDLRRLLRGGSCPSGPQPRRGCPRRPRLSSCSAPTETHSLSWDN

Amino acid sequences for entries named in this document (tags omitted). Residues count along the entry.
UniProt P32248, residues 25-378: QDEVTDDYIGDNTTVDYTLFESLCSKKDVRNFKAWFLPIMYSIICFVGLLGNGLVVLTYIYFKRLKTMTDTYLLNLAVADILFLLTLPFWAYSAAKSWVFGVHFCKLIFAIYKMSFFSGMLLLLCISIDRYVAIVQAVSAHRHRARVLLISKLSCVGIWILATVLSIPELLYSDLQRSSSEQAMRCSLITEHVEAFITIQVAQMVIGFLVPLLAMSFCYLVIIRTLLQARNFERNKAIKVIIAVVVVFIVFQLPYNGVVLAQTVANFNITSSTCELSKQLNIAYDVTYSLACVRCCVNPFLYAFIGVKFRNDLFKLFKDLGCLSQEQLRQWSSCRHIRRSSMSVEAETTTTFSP
UniProt P29067: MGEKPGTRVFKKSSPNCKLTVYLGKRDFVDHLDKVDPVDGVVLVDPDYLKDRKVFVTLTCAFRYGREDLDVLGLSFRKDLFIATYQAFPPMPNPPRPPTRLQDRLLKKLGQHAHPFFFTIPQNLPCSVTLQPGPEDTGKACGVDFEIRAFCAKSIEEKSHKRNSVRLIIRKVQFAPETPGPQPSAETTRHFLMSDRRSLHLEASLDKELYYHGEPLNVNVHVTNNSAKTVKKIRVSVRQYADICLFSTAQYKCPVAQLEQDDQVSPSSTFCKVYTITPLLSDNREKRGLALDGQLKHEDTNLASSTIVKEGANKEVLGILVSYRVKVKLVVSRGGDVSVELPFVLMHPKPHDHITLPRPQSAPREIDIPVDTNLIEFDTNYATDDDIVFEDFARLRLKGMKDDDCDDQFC

C-myc-CCR4-RLuc8 (human) = molecular target: T2, C-myc-CCR4-RLuc8 (human) (UniProt P51679)
T2 sequence: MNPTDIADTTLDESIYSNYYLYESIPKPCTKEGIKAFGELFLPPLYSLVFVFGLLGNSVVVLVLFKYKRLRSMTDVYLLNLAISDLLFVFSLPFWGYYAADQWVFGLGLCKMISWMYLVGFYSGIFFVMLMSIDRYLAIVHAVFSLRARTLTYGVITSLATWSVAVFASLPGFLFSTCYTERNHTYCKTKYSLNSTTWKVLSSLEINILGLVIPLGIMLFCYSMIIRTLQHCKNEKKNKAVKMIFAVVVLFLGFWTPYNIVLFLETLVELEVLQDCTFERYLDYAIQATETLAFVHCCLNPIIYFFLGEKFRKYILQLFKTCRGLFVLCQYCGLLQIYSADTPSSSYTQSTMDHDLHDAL

Measured: binding

YFP-β-arrestin2 (from UniProt P29067 1-410)
binds: all assays above

From article PMC8073111
